This is an account of results in PubChem BioAssay AID248 (DTP/NCI, 2004).

The list does not hold the whole screen: it covers a few groups of compounds. Other doses and runs of a compound may be missing. T/C gives the treated animals as a percentage of the vehicle group. Some entries give survivors of the animals treated and no T/C: the source files T/C as zero there, which appears to mark a toxic dose or a test without result, not a measured value. Some doses without a T/C left all or most animals alive at the check, yet need not have been tolerated: the source hardly ever lists a survival T/C far under the control, and the zero likely stands for such cases as well. Survivors were counted at the toxicity check, usually on the fifth day, unless a day is given; later deaths do not show. Schedule codes are those of the source, read here as Q, the interval in days (D) or hours (H), X, the number of doses. Some schedules carry Z or #; the key to these is not given. Where survival is the endpoint, this PubChem deposit counts one and a half times the control or more as active, and values a quarter to a half above the control carry no call in these data; other NCI protocols may use other cut-offs. Some doses were run more than once; the values are given in rising order. Some structures stand for samples that the source files as different forms (salt, stereo form or complex); doses refer to the form tested. Some entries show no survivor count and are marked so; the dose need not have been tolerated. Some T/C values carry the count of animals alive at the toxicity check (mostly the fifth day); without a count or a note in brackets, all were alive then.

The assay concerns L1210 leukemia ip in BDF1 mice, survival T/C. Briefly: NCI In Vivo Anticancer Drug Screen. Data for tumor model L1210 Leukemia (intraperitoneal) in B6D2F1 (BDF1) mice. The note with it: T/C endpoint: mean survival time, higher T/C = longer survival.
The mark [1] stands for this setting: dose: 100.0 mg/kg/injection, schedule: Q01DX009 (ip), vehicle: saline with Tween-80.
[2] abbreviates: dose: 200.0 mg/kg/injection, schedule: Q01DX009 (ip), vehicle: saline with Tween-80.
[3] abbreviates: dose: 75.0 mg/kg/injection, schedule: Q01DX001 (ip), vehicle: other.
The mark [4] stands for this setting: dose: 100.0 mg/kg/injection, schedule: Q01DX001 (ip), vehicle: saline.
[5] abbreviates: dose: 100.0 mg/kg/injection, schedule: Q04DX003 (ip), vehicle: saline.
The mark [6] stands for this setting: dose: 200.0 mg/kg/injection, schedule: Q01DX001 (ip), vehicle: saline.
[7] abbreviates: dose: 200.0 mg/kg/injection, schedule: Q04DX003 (ip), vehicle: saline.

For `O=C1C(Cl)=C(NCCCl)C(=O)C(Cl)=C1NCCCl`, the T/C runs as follows: (dose: 6.25 mg/kg/injection, schedule: Q04DX003 (ip), vehicle: Klucel (hydroxypropylcellulose) (HPC)) 95 % of control; (dose: 12.5 mg/kg/injection, schedule: Q04DX003 (ip), vehicle: Klucel (hydroxypropylcellulose) (HPC)) 101 % of control; (dose: 25.0 mg/kg/injection, schedule: Q04DX003 (ip), vehicle: Klucel (hydroxypropylcellulose) (HPC)) 92 % of control; (dose: 50.0 mg/kg/injection, schedule: Q04DX003 (ip), vehicle: Klucel (hydroxypropylcellulose) (HPC)) 90 % of control; (dose: 100.0 mg/kg/injection, schedule: Q04DX003 (ip), vehicle: Klucel (hydroxypropylcellulose) (HPC)) 104 % of control; (dose: 150.0 mg/kg/injection, schedule: Q04DX003 (ip), vehicle: Klucel (hydroxypropylcellulose) (HPC)) 90 % of control. The T/C runs as follows: (dose: 200.0 mg/kg/injection, schedule: Q04DX003 (ip), vehicle: Klucel (hydroxypropylcellulose) (HPC)) 97 % of control; (dose: 225.0 mg/kg/injection, schedule: Q04DX003 (ip), vehicle: Klucel (hydroxypropylcellulose) (HPC)) 101 % of control; (dose: 335.0 mg/kg/injection, schedule: Q04DX003 (ip), vehicle: Klucel (hydroxypropylcellulose) (HPC)) 95 % of control.
For the compound `O=[N+]([O-])c1cccc(-c2no[n+]([O-])c2-c2cccc([N+](=O)[O-])c2)c1`, the T/C reads like this: under setting [1], 90 % of control; under setting [2], 92 % of control. The survivor count (dose: 400.0 mg/kg/injection, schedule: Q01DX009 (ip), vehicle: saline with Tween-80) is 6 of 6.
As to `C1CCN(C2CC3CC2C2CSCC32)CC1` (centres undefined), the T/C is, setting by setting: under setting [3], 104 % of control [survivor count not shown]; (dose: 150.0 mg/kg/injection, schedule: Q01DX001 (ip), vehicle: other) 98 % of control [survivor count not shown]; (dose: 300.0 mg/kg/injection, schedule: Q01DX001 (ip), vehicle: other) 100 % of control [survivor count not shown].
Regarding `CCC12COP(OC1)OC2`, under setting [3], the T/C is 96 % of control.
With `NC1CCCCC1.O=P(O)(N(CCCl)CCCl)N1CC1`, the T/C runs as follows: (dose: 1.0 mg/kg/injection, schedule: Q01DX Z (ip), vehicle: saline) 96 % of control; (dose: 2.0 mg/kg/injection, schedule: Q01DX Z (ip), vehicle: saline) 134 % of control; (dose: 3.13 mg/kg/injection, schedule: Q01DX009 (ip), vehicle: saline) 127 % of control; (dose: 4.0 mg/kg/injection, schedule: Q01DX Z (ip), vehicle: saline) 96 and 143 % of control; (dose: 6.25 mg/kg/injection, schedule: Q01DX009 (ip), vehicle: saline) 161 % of control; (dose: 8.0 mg/kg/injection, schedule: Q01DX Z (ip), vehicle: saline) 149 and 175 % of control. Also, the T/C is, setting by setting: (dose: 12.5 mg/kg/injection, schedule: Q01DX001 (ip), vehicle: saline) 121 % of control; (dose: 12.5 mg/kg/injection, schedule: Q01DX009 (ip), vehicle: saline) 254 % of control; (dose: 12.5 mg/kg/injection, schedule: Q04DX003 (ip), vehicle: saline) 210 % of control; (dose: 16.0 mg/kg/injection, schedule: Q01DX Z (ip), vehicle: saline) 133 % of control; (dose: 25.0 mg/kg/injection, schedule: Q01DX001 (ip), vehicle: saline) 168 % of control; (dose: 25.0 mg/kg/injection, schedule: Q01DX009 (ip), vehicle: saline) 89 % of control. Besides, the T/C by setting is: (dose: 25.0 mg/kg/injection, schedule: Q04DX003 (ip), vehicle: saline) 247 % of control; (dose: 50.0 mg/kg/injection, schedule: Q01DX001 (ip), vehicle: saline) 262 % of control; (dose: 50.0 mg/kg/injection, schedule: Q04DX003 (ip), vehicle: saline) 129 % of control; (dose: 250.0 mg/kg/injection, schedule: Q01DX001 (ip), vehicle: DMSO) 172 % of control; (dose: 500.0 mg/kg/injection, schedule: Q01DX001 (ip), vehicle: DMSO) 185 % of control; (dose: 650.0 mg/kg/injection, schedule: Q01DX001 (ip), vehicle: DMSO) 167 % of control. In addition, the survivor count runs as follows: (dose: 32.0 mg/kg/injection, schedule: Q01DX Z (ip), vehicle: saline) 6 of 6; (dose: 50.0 mg/kg/injection, schedule: Q01DX009 (ip), vehicle: saline) 6 of 6; (dose: 62.5 mg/kg/injection, schedule: Q01DX010 (ip), vehicle: saline) 5 of 6; (dose: 64.0 mg/kg/injection, schedule: Q01DX Z (ip), vehicle: saline) 6 of 6; under setting [4], 6 of 6; under setting [5], 2 of 6. Also, the survivor count by setting is: (dose: 125.0 mg/kg/injection, schedule: Q01DX010 (ip), vehicle: saline) 0 of 6; under setting [6], 1 of 6; under setting [7], 0 of 6; (dose: 250.0 mg/kg/injection, schedule: Q01DX010 (ip), vehicle: saline) 0 of 6.
Consider `CCCCCCCCCCOP(=O)(Cl)CC` (centres undefined), for which the T/C (dose: 75.0 mg/kg/injection, schedule: Q01DX001 (ip), vehicle: saline) is 89 % of control [survivor count not shown].
On to `O=C(CO)Nc1ccc([As](=O)(O)O)cc1`, for which the T/C reads like this: (dose: 100.0 mg/kg/injection, schedule: Q01DX009 (ip), vehicle: saline, evaluated on day 20) 96 % of control; (dose: 100.0 mg/kg/injection, schedule: Q01DX009 (ip), vehicle: saline, evaluated on day 30) 97 % of control; under setting [5], 100 % of control; (dose: 200.0 mg/kg/injection, schedule: Q01DX009 (ip), vehicle: saline, evaluated on day 20) 91 % of control; (dose: 200.0 mg/kg/injection, schedule: Q01DX009 (ip), vehicle: saline, evaluated on day 30) 91 % of control; under setting [7], 97 % of control. In addition, the T/C was 96 % of control (dose: 400.0 mg/kg/injection, schedule: Q01DX009 (ip), vehicle: saline, evaluated on day 20); 92 % of control (dose: 400.0 mg/kg/injection, schedule: Q01DX009 (ip), vehicle: saline, evaluated on day 30); 100 % of control (dose: 400.0 mg/kg/injection, schedule: Q04DX003 (ip), vehicle: saline).
In the case of `C1CCC2(CC1)OOC1(CCCCC1)OO2`, the T/C (dose: 50.0 mg/kg/injection, schedule: Q01DX009 (ip), vehicle: saline with Tween-80) was 91 % of control [survivor count not shown]; the T/C under setting [1] is 98 % of control [survivor count not shown]; the T/C under setting [2] was 91 % of control [survivor count not shown].
Consider `O=C(O)C(CSSCC(Nc1ccc([N+](=O)[O-])cc1[N+](=O)[O-])C(=O)O)Nc1ccc([N+](=O)[O-])cc1[N+](=O)[O-]` (centres undefined), for which the T/C is 107 % of control under setting [4]; 101 % of control under setting [6]; 105 % of control [5 of 6 alive] (dose: 400.0 mg/kg/injection, schedule: Q01DX001 (ip), vehicle: saline).
Consider `Cc1ccc(NC(=O)NP(=O)(Nc2ccccc2)Nc2ccccc2)nc1`, for which the T/C was 92 % of control (dose: 50.0 mg/kg/injection, schedule: Q01DX001 (ip), vehicle: alcohol) and 92 % of control (dose: 100.0 mg/kg/injection, schedule: Q01DX001 (ip), vehicle: alcohol). Besides, the survivor count is 0 of 4 (dose: 200.0 mg/kg/injection, schedule: Q01DX001 (ip), vehicle: alcohol) and 0 of 4 (dose: 400.0 mg/kg/injection, schedule: Q01DX001 (ip), vehicle: alcohol).
